This is an account of results in the supplement of paper PMC11732987, “Enantioselective OTUD7B fragment discovery through chemoproteomics screening and high-throughput optimisation” (Communications Chemistry, 2025).

Sequences of proteins named here, by UniProt entry; tags and fusion partners are left off. A change or cut given only in a name is not applied to a line headed by its entry. Residues count along the entry.
UniProt O60306: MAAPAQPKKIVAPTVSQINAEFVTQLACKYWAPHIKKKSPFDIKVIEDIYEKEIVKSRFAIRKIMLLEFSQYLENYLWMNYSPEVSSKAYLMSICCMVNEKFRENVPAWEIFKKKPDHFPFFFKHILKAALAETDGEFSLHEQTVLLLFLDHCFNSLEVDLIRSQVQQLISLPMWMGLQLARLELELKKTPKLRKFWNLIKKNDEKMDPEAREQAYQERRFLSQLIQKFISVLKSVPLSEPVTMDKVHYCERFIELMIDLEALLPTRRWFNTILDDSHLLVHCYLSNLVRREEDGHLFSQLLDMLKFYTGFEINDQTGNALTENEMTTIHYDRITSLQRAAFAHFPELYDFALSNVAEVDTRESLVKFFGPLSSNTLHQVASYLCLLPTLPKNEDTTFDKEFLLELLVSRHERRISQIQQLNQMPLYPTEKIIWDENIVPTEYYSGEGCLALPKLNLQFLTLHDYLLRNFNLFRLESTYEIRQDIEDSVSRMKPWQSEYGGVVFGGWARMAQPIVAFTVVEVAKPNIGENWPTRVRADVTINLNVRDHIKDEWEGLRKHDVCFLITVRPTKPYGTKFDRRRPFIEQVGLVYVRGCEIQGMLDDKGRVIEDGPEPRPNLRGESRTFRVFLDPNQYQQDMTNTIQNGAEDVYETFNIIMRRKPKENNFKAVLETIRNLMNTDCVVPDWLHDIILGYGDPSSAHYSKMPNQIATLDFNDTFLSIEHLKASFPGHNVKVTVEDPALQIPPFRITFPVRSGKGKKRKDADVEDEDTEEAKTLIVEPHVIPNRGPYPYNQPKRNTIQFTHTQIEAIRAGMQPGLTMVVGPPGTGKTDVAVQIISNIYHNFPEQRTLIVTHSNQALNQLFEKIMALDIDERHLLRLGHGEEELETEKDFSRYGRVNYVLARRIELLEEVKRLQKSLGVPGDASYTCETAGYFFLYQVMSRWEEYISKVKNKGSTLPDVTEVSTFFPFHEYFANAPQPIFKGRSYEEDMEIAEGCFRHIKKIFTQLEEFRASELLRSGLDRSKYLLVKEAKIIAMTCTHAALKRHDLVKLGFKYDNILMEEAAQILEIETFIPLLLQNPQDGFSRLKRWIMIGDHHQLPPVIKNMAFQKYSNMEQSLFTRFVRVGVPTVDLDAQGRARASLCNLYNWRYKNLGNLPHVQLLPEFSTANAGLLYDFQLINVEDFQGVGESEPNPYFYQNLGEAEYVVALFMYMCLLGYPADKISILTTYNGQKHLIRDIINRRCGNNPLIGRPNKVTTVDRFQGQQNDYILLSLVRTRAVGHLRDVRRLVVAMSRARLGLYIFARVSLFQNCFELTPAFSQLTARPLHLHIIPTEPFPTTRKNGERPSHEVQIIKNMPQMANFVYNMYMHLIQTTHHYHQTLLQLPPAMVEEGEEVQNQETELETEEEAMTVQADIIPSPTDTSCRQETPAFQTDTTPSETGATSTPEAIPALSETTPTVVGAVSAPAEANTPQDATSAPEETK
UniProt Q9H2C2, 14-33: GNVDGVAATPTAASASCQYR
UniProt Q9UH62: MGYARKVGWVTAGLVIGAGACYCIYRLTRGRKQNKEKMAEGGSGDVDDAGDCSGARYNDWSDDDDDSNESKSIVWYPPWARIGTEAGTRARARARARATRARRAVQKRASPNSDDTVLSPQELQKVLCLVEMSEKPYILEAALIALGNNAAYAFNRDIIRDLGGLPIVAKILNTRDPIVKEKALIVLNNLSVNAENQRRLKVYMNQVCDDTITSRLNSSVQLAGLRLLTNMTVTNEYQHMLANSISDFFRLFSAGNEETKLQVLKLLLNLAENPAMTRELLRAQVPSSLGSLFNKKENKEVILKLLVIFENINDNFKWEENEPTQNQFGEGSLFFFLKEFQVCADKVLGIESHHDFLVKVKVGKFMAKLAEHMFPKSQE
UniProt Q66PJ3: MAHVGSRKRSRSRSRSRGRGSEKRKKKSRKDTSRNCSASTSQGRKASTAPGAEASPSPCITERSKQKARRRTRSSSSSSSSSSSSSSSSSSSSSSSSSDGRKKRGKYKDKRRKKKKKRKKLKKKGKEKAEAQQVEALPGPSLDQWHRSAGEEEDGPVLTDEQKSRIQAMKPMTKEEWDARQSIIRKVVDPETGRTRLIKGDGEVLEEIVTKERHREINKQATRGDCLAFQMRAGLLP
UniProt Q9UPS8, 447-467: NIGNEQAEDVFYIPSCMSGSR
UniProt O95376: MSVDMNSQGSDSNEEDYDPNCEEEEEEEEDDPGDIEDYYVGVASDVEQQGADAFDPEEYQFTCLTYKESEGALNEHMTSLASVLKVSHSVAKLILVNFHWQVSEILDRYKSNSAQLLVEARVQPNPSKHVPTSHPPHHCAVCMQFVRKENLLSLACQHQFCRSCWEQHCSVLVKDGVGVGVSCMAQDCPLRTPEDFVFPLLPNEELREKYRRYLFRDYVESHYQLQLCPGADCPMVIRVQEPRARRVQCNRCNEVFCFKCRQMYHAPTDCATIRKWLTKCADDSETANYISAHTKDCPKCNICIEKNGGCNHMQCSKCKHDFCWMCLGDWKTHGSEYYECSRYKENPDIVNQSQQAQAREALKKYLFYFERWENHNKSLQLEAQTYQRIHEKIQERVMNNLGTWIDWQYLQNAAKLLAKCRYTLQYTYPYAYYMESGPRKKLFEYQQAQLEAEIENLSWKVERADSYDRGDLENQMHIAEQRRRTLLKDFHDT
UniProt Q92625, 142-166: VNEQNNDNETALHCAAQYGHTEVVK
UniProt P20073: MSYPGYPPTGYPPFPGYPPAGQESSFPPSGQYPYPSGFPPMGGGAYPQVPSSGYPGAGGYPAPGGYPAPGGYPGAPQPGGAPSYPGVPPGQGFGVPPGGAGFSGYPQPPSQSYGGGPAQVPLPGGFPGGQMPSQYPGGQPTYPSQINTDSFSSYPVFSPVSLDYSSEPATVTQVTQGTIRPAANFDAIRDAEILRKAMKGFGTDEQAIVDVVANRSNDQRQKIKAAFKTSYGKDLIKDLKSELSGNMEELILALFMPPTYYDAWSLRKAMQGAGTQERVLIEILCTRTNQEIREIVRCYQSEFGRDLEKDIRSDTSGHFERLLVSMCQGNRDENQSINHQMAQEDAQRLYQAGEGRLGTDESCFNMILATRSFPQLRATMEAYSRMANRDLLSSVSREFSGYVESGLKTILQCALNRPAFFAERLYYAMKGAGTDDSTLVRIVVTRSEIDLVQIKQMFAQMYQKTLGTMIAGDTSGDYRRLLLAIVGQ
UniProt O94973: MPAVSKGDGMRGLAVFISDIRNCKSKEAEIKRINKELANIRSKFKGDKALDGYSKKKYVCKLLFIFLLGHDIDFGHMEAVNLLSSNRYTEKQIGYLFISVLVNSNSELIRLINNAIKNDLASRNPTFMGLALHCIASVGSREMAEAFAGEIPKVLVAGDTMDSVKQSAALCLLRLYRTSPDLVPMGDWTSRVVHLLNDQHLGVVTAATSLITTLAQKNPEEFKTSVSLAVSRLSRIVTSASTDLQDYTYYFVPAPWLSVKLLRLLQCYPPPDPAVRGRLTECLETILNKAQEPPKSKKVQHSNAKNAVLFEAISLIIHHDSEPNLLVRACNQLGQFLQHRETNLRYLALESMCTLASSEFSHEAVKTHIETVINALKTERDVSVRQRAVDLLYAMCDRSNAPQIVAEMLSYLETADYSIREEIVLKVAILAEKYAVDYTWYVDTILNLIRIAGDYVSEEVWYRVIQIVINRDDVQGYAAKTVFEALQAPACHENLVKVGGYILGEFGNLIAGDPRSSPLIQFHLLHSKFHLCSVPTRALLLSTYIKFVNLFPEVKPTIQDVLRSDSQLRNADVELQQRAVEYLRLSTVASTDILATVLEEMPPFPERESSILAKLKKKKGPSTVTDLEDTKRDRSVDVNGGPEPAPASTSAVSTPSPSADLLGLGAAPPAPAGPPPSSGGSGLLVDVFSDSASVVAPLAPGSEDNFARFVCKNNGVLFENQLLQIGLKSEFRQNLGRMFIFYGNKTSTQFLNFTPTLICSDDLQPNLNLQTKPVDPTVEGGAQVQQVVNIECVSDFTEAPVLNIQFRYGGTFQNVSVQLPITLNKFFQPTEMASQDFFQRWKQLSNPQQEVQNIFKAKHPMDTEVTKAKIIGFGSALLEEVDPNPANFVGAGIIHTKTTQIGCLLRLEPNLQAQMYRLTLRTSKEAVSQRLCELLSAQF
UniProt Q68EM7, 301-325: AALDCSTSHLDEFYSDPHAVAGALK
UniProt Q6P4F7: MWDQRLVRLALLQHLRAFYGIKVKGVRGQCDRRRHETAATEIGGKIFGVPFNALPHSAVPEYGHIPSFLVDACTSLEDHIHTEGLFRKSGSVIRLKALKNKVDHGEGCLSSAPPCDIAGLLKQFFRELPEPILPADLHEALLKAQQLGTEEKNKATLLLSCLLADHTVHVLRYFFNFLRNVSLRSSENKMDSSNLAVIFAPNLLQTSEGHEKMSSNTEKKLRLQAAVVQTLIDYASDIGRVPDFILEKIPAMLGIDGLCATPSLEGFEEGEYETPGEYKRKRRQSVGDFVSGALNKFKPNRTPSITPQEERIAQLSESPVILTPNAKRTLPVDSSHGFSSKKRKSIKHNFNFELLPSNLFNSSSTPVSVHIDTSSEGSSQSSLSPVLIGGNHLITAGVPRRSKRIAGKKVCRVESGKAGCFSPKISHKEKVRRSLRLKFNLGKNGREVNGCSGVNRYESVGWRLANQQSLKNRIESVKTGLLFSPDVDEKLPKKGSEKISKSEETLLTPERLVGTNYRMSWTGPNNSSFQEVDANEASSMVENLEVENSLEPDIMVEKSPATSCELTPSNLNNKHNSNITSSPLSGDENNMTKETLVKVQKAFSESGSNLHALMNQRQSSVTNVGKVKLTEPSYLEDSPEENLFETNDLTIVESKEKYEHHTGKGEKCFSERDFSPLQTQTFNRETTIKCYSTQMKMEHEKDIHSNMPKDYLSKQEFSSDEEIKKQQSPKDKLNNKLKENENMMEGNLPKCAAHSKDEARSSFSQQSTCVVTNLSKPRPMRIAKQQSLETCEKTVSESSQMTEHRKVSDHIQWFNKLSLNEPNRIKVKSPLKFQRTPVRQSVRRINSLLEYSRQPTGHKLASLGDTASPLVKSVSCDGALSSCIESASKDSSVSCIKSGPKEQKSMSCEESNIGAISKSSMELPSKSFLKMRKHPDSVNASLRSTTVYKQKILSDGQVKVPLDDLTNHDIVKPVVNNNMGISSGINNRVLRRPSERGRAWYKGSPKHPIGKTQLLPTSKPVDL
UniProt A7KAX9, 1965-1985: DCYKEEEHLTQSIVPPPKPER
UniProt A7KAX9, 1353-1385: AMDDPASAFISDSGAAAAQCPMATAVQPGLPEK
UniProt Q8N9N2: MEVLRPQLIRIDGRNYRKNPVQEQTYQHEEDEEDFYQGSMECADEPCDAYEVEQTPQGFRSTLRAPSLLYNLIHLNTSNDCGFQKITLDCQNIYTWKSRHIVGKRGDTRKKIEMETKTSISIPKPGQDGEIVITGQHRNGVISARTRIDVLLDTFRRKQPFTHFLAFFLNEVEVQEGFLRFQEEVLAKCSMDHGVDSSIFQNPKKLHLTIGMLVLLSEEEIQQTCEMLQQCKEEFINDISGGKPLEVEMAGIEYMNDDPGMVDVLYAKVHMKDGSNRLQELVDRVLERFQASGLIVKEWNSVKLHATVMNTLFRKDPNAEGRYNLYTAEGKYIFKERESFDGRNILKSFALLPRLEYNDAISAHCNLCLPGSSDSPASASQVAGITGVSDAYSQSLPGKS
UniProt O95671, 542-564: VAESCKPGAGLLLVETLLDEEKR
UniProt Q15041, whole entry, looked up: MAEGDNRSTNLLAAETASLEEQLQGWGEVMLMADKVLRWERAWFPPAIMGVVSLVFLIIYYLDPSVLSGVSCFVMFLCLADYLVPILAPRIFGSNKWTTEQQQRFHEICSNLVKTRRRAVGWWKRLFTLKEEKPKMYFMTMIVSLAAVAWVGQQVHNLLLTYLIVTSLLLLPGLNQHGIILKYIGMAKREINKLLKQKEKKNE
UniProt P10398: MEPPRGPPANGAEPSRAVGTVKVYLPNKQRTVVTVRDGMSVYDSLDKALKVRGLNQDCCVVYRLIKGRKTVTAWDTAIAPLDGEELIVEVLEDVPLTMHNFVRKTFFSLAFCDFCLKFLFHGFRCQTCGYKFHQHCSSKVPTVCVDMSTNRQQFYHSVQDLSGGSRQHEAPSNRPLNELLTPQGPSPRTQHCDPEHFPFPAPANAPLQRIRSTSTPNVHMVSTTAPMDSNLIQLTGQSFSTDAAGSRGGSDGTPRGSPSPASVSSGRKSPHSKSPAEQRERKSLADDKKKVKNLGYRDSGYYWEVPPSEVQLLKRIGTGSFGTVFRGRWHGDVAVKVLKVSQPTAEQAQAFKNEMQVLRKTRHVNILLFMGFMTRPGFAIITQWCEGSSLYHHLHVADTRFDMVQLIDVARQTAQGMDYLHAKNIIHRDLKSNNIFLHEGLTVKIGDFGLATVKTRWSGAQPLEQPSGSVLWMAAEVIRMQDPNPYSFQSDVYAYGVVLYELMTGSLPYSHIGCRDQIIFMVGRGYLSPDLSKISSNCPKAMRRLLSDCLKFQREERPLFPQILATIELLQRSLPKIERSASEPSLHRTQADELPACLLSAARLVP

Compound in assay [1]: ClCC(=O)N[C@@H]1CCCc2ccccc12
The assay can be described thus: log2 mean competition ratio of IA-DTB cysteine labelling (DMSO/compound) (log2 ratio); higher = stronger cysteine engagement by compound. The following applies: treatment time: 4 h, cell line lysate: HEK293T. The method, then: (§1)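 IA-DTB competitive cysteine chemoproteomics in HEK293T RIPA lysate. Lysates were treated with compound 29 or 30 at 50 or 200 µM for 4 h, then IA-DTB (500 µM, 1 h), trypsin-digested, NeutrAvidin-enriched and analysed by diaPASEF. Competition ratio = intensity DMSO / intensity compound (n=4 treated, n=64 DMSO); binding: mean log2 CR ≥ 1 and p ≤ 0.05 plus QC filters. Target is the cysteine site.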

Compound in assay [2]: ClCC(=O)N[C@H]1CCCc2ccccc12
Described as above. The following applies: treatment time: 4 h, cell line lysate: HEK293T. On the procedure: as §1

The other results are listed elsewhere or left out. The data scatter; read single values as rough.

Consider ARFGEF1 C1200 (UniProt Q9Y6D6), for which the results for the “log2 mean competition ratio” value in assay [1] (50 µM) and in assay [1] (200 µM) were -0.097 and 0.323, respectively.

ARIH1 C161 (UniProt Q9Y4X5): the “log2 mean competition ratio” value in assay [1] (50 µM) is 0.35; in assay [1] (200 µM), -0.0981.

For the target AP3M2 C29 (UniProt P53677), the “log2 mean competition ratio” value in assay [1] (50 µM) was 0.177; in assay [1] (200 µM) it was -0.0984.

Regarding AQR C997 (UniProt O60306), the “log2 mean competition ratio” value in assay [1] (50 µM) is 0.275; in assay [1] (200 µM) it was -0.0118.

Regarding ARFGEF2 C90 (UniProt Q9Y6D5), the “log2 mean competition ratio” value was 0.139 in assay [1] (50 µM) and 0.11 in assay [1] (200 µM).

Turning to APBB1 C672, the “log2 mean competition ratio” value in assay [1] (50 µM) is -0.153; in assay [1] (200 µM), -0.177.

For ARHGAP29 C518 (UniProt Q52LW3), the “log2 mean competition ratio” value in assay [1] (50 µM) is 0.00785; in assay [1] (200 µM), -0.278.

For ANKRD11 C146 (UniProt Q6UB99), the entries for the “log2 mean competition ratio” value in assay [1] (50 µM) and in assay [1] (200 µM) were -0.368 and -0.152, respectively.

ARID2 C1271 (UniProt Q68CP9): the “log2 mean competition ratio” value in assay [1] (50 µM) was -0.0527; in assay [1] (200 µM), 0.201.

APLP2 C343 (UniProt Q06481): the “log2 mean competition ratio” value in assay [1] (50 µM) is -0.183; in assay [1] (200 µM), -0.0677.

Turning to ARID1A C1874 (UniProt O14497), the “log2 mean competition ratio” value is -0.0853 in assay [1] (50 µM) and -0.627 in assay [1] (200 µM).

Take APC C947 (UniProt P25054): the “log2 mean competition ratio” value in assay [1] (50 µM) is -0.0151; in assay [1] (200 µM), -0.134.

For the target ARV1 C30 (UniProt Q9H2C2), the “log2 mean competition ratio” value in assay [1] (50 µM) was -0.0108; in assay [1] (200 µM), -0.0491.

Turning to ASCC3 C2101 (UniProt Q8N3C0), the entries for the “log2 mean competition ratio” value in assay [1] (50 µM) and in assay [1] (200 µM) were 0.035 and -0.187, respectively.

In the case of ARMCX3 C208 (UniProt Q9UH62), the “log2 mean competition ratio” value in assay [1] (50 µM) is -0.207; in assay [1] (200 µM) it was 0.034.

As for ARF5 C62 (UniProt P84085), the “log2 mean competition ratio” value is 0.302 in assay [1] (50 µM) and -0.276 in assay [1] (200 µM).

For the target ANKLE2 C286 (UniProt Q86XL3), the “log2 mean competition ratio” value in assay [1] (50 µM) is 0.0309; in assay [1] (200 µM), -0.0438.

For the target ARL6IP4 C36 (UniProt Q66PJ3), the “log2 mean competition ratio” value was 0.129 in assay [1] (50 µM) and -0.0972 in assay [1] (200 µM).

Regarding ARHGEF26 C566, the entries for the “log2 mean competition ratio” value in assay [1] (50 µM) and in assay [1] (200 µM) were -0.31 and 0.357, respectively.

For ANKRD26 C462 (UniProt Q9UPS8), the “log2 mean competition ratio” value was -0.0294 in assay [1] (50 µM) and -0.403 in assay [1] (200 µM).

For ARHGEF12 C1325 (UniProt Q9NZN5), the “log2 mean competition ratio” value in assay [1] (50 µM) was -0.014; in assay [1] (200 µM), -0.0182.

For ANXA2 C9, the “log2 mean competition ratio” value in assay [1] (50 µM) is -0.0731; in assay [1] (200 µM) it was 0.0273.

As to APEX2 C368 (UniProt Q9UBZ4), the “log2 mean competition ratio” value in assay [1] (50 µM) came out at 0.0881; in assay [1] (200 µM), 0.35.

Take ANKRD17 C210 (UniProt O75179): the “log2 mean competition ratio” value in assay [1] (50 µM) was -0.0269; in assay [1] (200 µM), 0.275.

In the case of ARIH2 C280 (UniProt O95376), the “log2 mean competition ratio” value is -0.0535 in assay [1] (50 µM) and -0.113 in assay [1] (200 µM).

Consider ANKS1A C155 (UniProt Q92625), for which the “log2 mean competition ratio” value in assay [1] (50 µM) is -0.0818; in assay [1] (200 µM), -0.583.

With ARMC8 C661, the “log2 mean competition ratio” value turned out to be 0.0359 in assay [1] (50 µM) and 0.344 in assay [1] (200 µM).

As for ANXA7 C298 (UniProt P20073), the “log2 mean competition ratio” value in assay [1] (50 µM) is 0.131; in assay [1] (200 µM) it was -0.162.

Turning to ARIH2 C340 (UniProt O95376), the “log2 mean competition ratio” value is -0.231 in assay [1] (50 µM) and 0.144 in assay [1] (200 µM).

AP2B1 C95 (UniProt P63010): the “log2 mean competition ratio” value in assay [1] (50 µM) was -0.15; in assay [1] (200 µM) it was -0.101.

Consider AP2A2 C491 (UniProt O94973), for which the “log2 mean competition ratio” value in assay [1] (50 µM) was 0.011; in assay [1] (200 µM), -0.119.

ARHGAP42 C24: the “log2 mean competition ratio” value was -0.248 in assay [1] (50 µM) and 0.309 in assay [1] (200 µM).

For the target ASCC3 C1906 (UniProt Q8N3C0), the “log2 mean competition ratio” value is -0.312 in assay [1] (50 µM) and -0.678 in assay [1] (200 µM).

In the case of ANKRD27 C277 (UniProt Q96NW4), the “log2 mean competition ratio” value is -0.127 in assay [1] (50 µM) and -0.13 in assay [1] (200 µM).

Regarding ARHGEF6 C738 (UniProt Q15052), the figures for the “log2 mean competition ratio” value in assay [1] (50 µM) and in assay [1] (200 µM) were -0.0155 and 0.384, respectively.

Consider ASH2L C207 (UniProt Q9UBL3), for which the “log2 mean competition ratio” value in assay [1] (50 µM) is 0.362; in assay [1] (200 µM), -0.0606.

For ANKLE2 C350 (UniProt Q86XL3), the entries for the “log2 mean competition ratio” value in assay [1] (50 µM) and in assay [1] (200 µM) were -0.0579 and 0.124, respectively.

On to ANKRD17 C2063 (UniProt O75179), for which the “log2 mean competition ratio” value is -0.0238 in assay [1] (50 µM), -0.0576 in assay [1] (200 µM), 0.14 in assay [2] (50 µM) and 0.127 in assay [2] (200 µM).

On to ARHGAP17 C305 (UniProt Q68EM7), for which the results for the “log2 mean competition ratio” value in assay [1] (50 µM) and in assay [1] (200 µM) were -0.0619 and 0.0501, respectively.

For AP1G1 C353, the “log2 mean competition ratio” value is -0.103 in assay [1] (50 µM) and -0.515 in assay [1] (200 µM).

On to ARHGAP11A C690 (UniProt Q6P4F7), for which the “log2 mean competition ratio” value in assay [1] (50 µM) was 0.132; in assay [1] (200 µM), 0.0633; in assay [2] (200 µM), 0.0527.

On to ARPIN C183 (UniProt Q7Z6K5), for which the “log2 mean competition ratio” value is -0.0776 in assay [1] (50 µM) and 0.477 in assay [1] (200 µM).

For the target AP2A1 C267 (UniProt O95782), the “log2 mean competition ratio” value was 0.271 in assay [1] (50 µM), 0.0636 in assay [1] (200 µM) and -0.0382 in assay [2] (200 µM).

As to ARMC10 C59 (UniProt Q8N2F6), the “log2 mean competition ratio” value in assay [1] (50 µM) is -0.282; in assay [1] (200 µM) it was 0.185.

On to ARHGAP32 C1966 (UniProt A7KAX9), for which the “log2 mean competition ratio” value in assay [1] (50 µM) came to 0.176; in assay [1] (200 µM) it was 0.214.

As for ASCC1 C189 (UniProt Q8N9N2), the “log2 mean competition ratio” value was -0.322 in assay [1] (50 µM) and 0.078 in assay [1] (200 µM).

On to ARFGEF3 C1018, for which the “log2 mean competition ratio” value in assay [1] (50 µM) was 0.284; in assay [1] (200 µM), -0.25.

Take ANP32A C123 (UniProt P39687): the “log2 mean competition ratio” value in assay [1] (50 µM) is 0.0645; in assay [1] (200 µM) it was -0.068; in assay [2] (50 µM), -0.126; in assay [2] (200 µM) it was 0.00535.

As to ASMTL C546 (UniProt O95671), the “log2 mean competition ratio” value in assay [1] (50 µM) is 0.607; in assay [1] (200 µM) it was 0.338; in assay [2] (50 µM), 0.292; in assay [2] (200 µM) it was 0.102.

Take ARHGEF17 C231: the “log2 mean competition ratio” value is 0.525 in assay [1] (50 µM) and 0.276 in assay [1] (200 µM).

Regarding ARID4A C25 (UniProt P29374), the “log2 mean competition ratio” value was -0.278 in assay [1] (50 µM), -0.209 in assay [1] (200 µM) and -0.0724 in assay [2] (50 µM).

For the target ARID1A C1827 (UniProt O14497), the “log2 mean competition ratio” value is -0.0641 in assay [1] (50 µM) and 0.19 in assay [1] (200 µM).

With ANKRD6 C613, the “log2 mean competition ratio” value in assay [1] (50 µM) is -0.248; in assay [1] (200 µM), -0.0124; in assay [2] (50 µM), -0.618; in assay [2] (200 µM), 0.0275.

On to ARL6IP1 C109 (UniProt Q15041), for which the “log2 mean competition ratio” value stood at 0.603 in assay [1] (50 µM) and 0.101 in assay [1] (200 µM).

Turning to ARHGAP32 C1372 (UniProt A7KAX9), the “log2 mean competition ratio” value in assay [1] (50 µM) was -0.359; in assay [1] (200 µM), -0.452; in assay [2] (50 µM) it was 0.782; in assay [2] (200 µM) it was -0.378.

Turning to ANLN C309 (UniProt Q9NQW6), the “log2 mean competition ratio” value in assay [1] (50 µM) was 0.106; in assay [1] (200 µM) it was -0.0229; in assay [2] (50 µM), -0.113; in assay [2] (200 µM), 0.0764.

Turning to ARHGAP11A C451 (UniProt Q6P4F7), the “log2 mean competition ratio” value is 0.0293 in assay [1] (50 µM) and 0.265 in assay [1] (200 µM).

On to ARAF C144 (UniProt P10398), for which the entries for the “log2 mean competition ratio” value in assay [1] (50 µM) and in assay [1] (200 µM) were 0.174 and 0.026, respectively.
